Results are given in words; binding and its absence hold for the method and conditions named. In cells and extracts the contact can be indirect. Some results given as binding are weak or reduced against the parent protein; the word gives no strength. Tags and fused reporters may be left off the sequences shown.
Target: BRI1-FLAG (Brassinosteroid Insensitive 1) (Arabidopsis thaliana) (UniProt O22476)
Test: co-IP; solubilized membrane protein from 11-day-old liquid-cultured transgenic Arabidopsis seedlings (35S::SERK2-GFP and 35S::BRI1-FLAG), treated with or without 24-epiBL for 90 min; BRI1-FLAG immunoprecipitated with agarose-linked anti-FLAG antibody; Western with anti-GFP and anti-FLAG

Protein sequences, listed by entry. Tags and fused reporters are not part of them. Residues count along the entry.
UniProt O22476, residues 24-1196: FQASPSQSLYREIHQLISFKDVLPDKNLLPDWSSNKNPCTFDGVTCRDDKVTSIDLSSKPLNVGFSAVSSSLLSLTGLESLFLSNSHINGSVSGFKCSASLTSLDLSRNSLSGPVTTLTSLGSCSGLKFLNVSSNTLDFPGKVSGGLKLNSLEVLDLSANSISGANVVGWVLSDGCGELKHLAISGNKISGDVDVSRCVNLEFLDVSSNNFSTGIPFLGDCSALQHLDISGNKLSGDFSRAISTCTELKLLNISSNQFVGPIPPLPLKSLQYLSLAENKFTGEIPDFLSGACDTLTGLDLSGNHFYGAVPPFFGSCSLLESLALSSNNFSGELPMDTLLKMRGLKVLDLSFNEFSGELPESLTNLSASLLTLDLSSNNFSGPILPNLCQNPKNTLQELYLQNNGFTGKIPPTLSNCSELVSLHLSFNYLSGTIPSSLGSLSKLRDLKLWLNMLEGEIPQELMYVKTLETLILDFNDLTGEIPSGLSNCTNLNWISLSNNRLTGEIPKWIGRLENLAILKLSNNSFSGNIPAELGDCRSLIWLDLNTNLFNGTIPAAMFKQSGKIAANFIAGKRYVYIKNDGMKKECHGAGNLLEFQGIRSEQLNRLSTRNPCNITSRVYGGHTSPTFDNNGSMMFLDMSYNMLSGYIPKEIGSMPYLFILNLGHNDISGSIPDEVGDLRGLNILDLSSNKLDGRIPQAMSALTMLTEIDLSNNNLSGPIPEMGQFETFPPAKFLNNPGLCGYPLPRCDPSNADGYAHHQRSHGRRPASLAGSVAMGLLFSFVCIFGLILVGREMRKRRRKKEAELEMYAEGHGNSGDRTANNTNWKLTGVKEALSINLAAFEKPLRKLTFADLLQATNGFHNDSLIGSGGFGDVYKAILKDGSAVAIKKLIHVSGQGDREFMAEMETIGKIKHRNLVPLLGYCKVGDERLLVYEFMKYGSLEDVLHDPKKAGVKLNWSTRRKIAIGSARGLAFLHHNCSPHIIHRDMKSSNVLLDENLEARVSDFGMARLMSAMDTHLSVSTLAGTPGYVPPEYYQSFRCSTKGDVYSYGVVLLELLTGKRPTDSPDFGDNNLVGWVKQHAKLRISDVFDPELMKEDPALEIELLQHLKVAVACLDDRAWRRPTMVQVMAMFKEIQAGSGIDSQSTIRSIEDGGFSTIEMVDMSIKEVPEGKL

B1: SERK2-GFP (Somatic Embryogenesis Receptor Kinase 2) (receptor, UniProt Q9XIC7 30-628)
chain: NMEGDALHSLRANLVDPNNVLQSWDPTLVNPCTWFHVTCNNENSVIRVDLGNADLSGQLVPQLGQLKNLQYLELYSNNITGPVPSDLGNLTNLVSLDLYLNSFTGPIPDSLGKLFKLRFLRLNNNSLTGPIPMSLTNIMTLQVLDLSNNRLSGSVPDNGSFSLFTPISFANNLDLCGPVTSRPCPGSPPFSPPPPFIPPPIVPTPGGYSATGAIAGGVAAGAALLFAAPALAFAWWRRRKPQEFFFDVPAEEDPEVHLGQLKRFSLRELQVATDSFSNKNILGRGGFGKVYKGRLADGTLVAVKRLKEERTPGGELQFQTEVEMISMAVHRNLLRLRGFCMTPTERLLVYPYMANGSVASCLRERPPSQLPLAWSIRQQIALGSARGLSYLHDHCDPKIIHRDVKAANILLDEEFEAVVGDFGLARLMDYKDTHVTTAVRGTIGHIAPEYLSTGKSSEKTDVFGYGIMLLELITGQRAFDLARLANDDDVMLLDWVKGLLKEKKLEMLVDPDLQSNYTEAEVEQLIQVALLCTQSSPMERPKMSEVVRMLEGDGLAEKWDEWQKVEVLRQEVELSSHPTSDWILDSTDNLHAMELSGPR
For B1, the binding was “binds weakly”.

— article PMC3257278
